Patent publication US20260008817A1, “CYCLIC PEPTIDE OR SALT THEREOF, AND USES THEREOF” (FUJIFILM Corporation, priority 2023, published 2026)
These are yes or no findings as the source states them, for the method shown. Some results given as binding are weak or reduced against the parent protein; the word gives no strength.

Sequences of proteins named here, by UniProt entry; tags and fusion partners are left off. A change or cut given only in a name is not applied to a line headed by its entry. A line that says so, or that is headed by a name, gives the form on record, which may keep a tag or linker. Residues count along the entry.
FGFR1 Protein, Human, Recombinant (His Tag) (Sino Biological, 10616-H08H) (P11362, form named): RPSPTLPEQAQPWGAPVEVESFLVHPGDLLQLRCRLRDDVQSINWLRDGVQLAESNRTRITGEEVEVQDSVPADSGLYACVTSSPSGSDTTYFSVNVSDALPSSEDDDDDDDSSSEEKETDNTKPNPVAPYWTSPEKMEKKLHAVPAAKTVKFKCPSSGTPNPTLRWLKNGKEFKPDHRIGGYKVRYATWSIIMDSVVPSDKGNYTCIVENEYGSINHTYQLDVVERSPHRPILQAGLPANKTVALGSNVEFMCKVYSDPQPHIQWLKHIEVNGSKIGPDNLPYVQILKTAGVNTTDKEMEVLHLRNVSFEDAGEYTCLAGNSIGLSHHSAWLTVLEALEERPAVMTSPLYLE
UniProt P22607, residues 23-375: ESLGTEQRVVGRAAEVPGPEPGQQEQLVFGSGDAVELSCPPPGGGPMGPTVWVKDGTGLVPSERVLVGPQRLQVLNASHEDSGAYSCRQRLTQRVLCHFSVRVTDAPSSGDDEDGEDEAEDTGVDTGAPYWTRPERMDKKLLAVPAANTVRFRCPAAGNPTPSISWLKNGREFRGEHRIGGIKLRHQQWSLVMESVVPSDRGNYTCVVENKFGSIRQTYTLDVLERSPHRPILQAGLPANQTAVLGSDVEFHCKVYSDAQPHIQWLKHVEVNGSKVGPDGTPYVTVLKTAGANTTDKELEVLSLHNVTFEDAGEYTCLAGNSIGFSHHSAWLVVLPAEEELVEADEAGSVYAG

Experiments:
[1] = molecular target: FGFR1 Protein, Human, Recombinant (His Tag) (Sino Biological, 10616-H08H) (human) (UniProt P11362); assay: SPR, FGFR over immobilized peptide
[2] = molecular target: FGFR3 Protein, Human, Recombinant (ECD, His Tag) (Sino Biological, 16044-H08H) (human) (UniProt P22607); assay: SPR, FGFR over immobilized peptide

B1: cyclic peptide SEQ ID NO: 335 (peptide)
peptide: ACVWTFDRHAQEISQALHKVKKK
modifications: (C) and (K(acetyl)) joined by a thioether ring
binding [1]: binds
binding [2]: binds
